Part of at least one peptide drawing is inferred or uncertain, most often the ends. Where no end group is shown, it is not given here.
System: freshly isolated human primary keratinocytes
Test: Wound closure test of a sheet of primary keratinocytes
Format: cell-based
Details: 25 μg/ml peptide
Text: • the HT1080 line: Cells originating from epithelial lines, tools commonly used for cell adhesion studies, were first used. The cells of the HT1080 line (fibrosarcoma, Human), American Type Culture Collection CCL-121. • primary human keratinocytes: For the cell viability and migration test, freshly isolated normal human keratinocytes were used. Human keratinocytes were obtained from preputial biopsy (surgical waste, tissue bank and cells, Edouard Herriot Hospital). The culture medium used during the experiments was the medium defined for KGM-Gold keratinocytes sold by Lonza Bioscience containing 0.15 mM of CaCl2, pH 7.2 to 7.4. The keratinocytes were obtained according to the Boyce and Ham technique (Cultivation, frozen storage, and clonal growth of normal human epidermal keratinocytes in serum free-media, Tiss Cuit. Meth. 1985, 9:83-93). The pieces of skin, after rinsing in PBS buffer containing antibiotics, were freed of the fat tissue and cut into 3 mm^2 pieces, then placed in a sterile solution of 0.25% trypsin in PBS for 16 h at 4° C. The dermis/epidermis separation was carried out in a Petri dish containing culture medium in order to stop the action of trypsin. The epidermis fragments were sucked in and discharged several times to detach the free basal cells. After centrifuging, 3.10^4 live cells were seeded per cm2 on dishes for tissue cultivation (Corning, Polylabo, France). The keratinocytes were cultured at 37° C. in a CO2 incubator (5% CO2, 95% air and 98% moisture). The sub-culture took place when the cells reached the sub-confluence. The sheet of cells was then rinsed with PBS, then covered with a solution of Trypsin-EDTA (0.05-0.02%). After a short incubation at 37° C., the cells were detached, counted, and re-seeded.
6-well plates (Costar) are covered with collagen I for 16 h then rinsed with PBS. Three inserts with two Ibidi-sterile wells (Ibidi, reference: 80209) are deposited in each of the wells. 2×10^4 keratinocytes are deposited in each insert well in KBM-Gold. After two hours of incubation in humid air at 37° C., composed of 5% CO2 and 95% atmospheric air, the culture medium is sucked out and the inserts removed. KBM-Gold with no supplement is added to each of the wells of the plate. The cells are thus: not treated (medium alone), treated with supplement-free KBM-Gold containing the peptides studied (25 μg/ml), or treated with supplement-free KBM-Gold containing EGF at 10 ng/ml (Peprotech). The cultures are stopped at 12 h and 24 h, the media are sucked out, and the cells are fixed with 2% PBS-Paraformaldehyde for 20 minutes. […] Image acquisitions are carried out and the injuries are quantified using Adobe Photoshop CS3 software.

Sequence | wound closure activity, LRIRATYG and TALRIRATYGEY compared between them (12 and 24 h, Example 5, FIG. 4) | wound closure activity compared with negative control (24 h, negative control culture medium alone, Example 5, FIG. 4) | wound closure activity compared to the negative control (12 and 24 h, Example 8, FIG. 7) | wound closure activity compared to peptide TALRIRATYGEY (12 and 24 h post-wound, Example 8, FIG. 7)
LRIRATYG [LRIRATYG] | equivalent activity between them | significantly greater than that of the negative control |  | 
LRIRFTYK [LRIRFTYK] |  |  | very significantly greater | significantly greater activity than the peptide TALRIRATYGEY
